{
  "source": "patent US20100190845A1",
  "about": "“METHOD OF TREATING CANCER USING ATP SYNTHASE INHIBITORS” (NATIONAL TAIWAN UNIVERSITY, priority 2009, published 2010)",
  "system": "MCF-7 breast cancer cells",
  "format": "cell-based, human",
  "conditions": "MCF-7, 48 hours, same concentrations as aurovertin B (0.1 to 10 μm)",
  "procedure": "Human breast cancer cell lines, MCF-7, MDA-MB231, T47D and human normal breast cell line MCF-10A, were obtained from the American Type Culture Collection (Manassas, Va.). Human breast cancer cell lines were maintained in DMEM at 37° C. with 5% CO2 (Gibco, Carlsbad, Calif., USA), 5% fetal bovine serum (Gibco), 50 units/mL penicillin, and 50 μg/mL streptomycin (Gibco). MCF-10A cells were culture in DMEM (Gibco), 0.01 mg/mL Insulin, 5 μg/mL Hydrocortisone.\nCytotoxic effects on the growth and viability of cells were determined using MTT (3(4,5-dimethylthiazol-2-yl)-2,5-diphenyltetrazolium bromide, a tetrazole) assay. 10^4 cells/mL were plated in 96-well plates and allowed to attach for 24 hours. Cells were treated with […] of aurovertin B, resveratrol and piceatannol for 48 hours. At the end of the incubation period, MTT reagent (10 μL) was added to each 100 μL of culture. After incubation for 4 hr at 37° C., the formed water insoluble formazan dye was solubilized by adding 100 μL of DMSO to the culture wells. The plates were further incubated for 15 min at room temperature, and optical density (OD) of the wells was determined using ELISA microplate reader at a test wavelength of 570 nm. All experiments were performed in triplicates.",
  "note": "Some of these results come from one statement about several compounds together.",
  "data": [
    {"molecule": "Oc1ccc(C=Cc2cc(O)cc(O)c2)cc1", "note": "[resveratrol]", "values": [
      {"measurement": "cell viability rate", "value": "≥ 80", "unit": "%"}
    ]}
  ]
}
